From patent US20220339270A1 come the findings set out here.

Protein sequences, listed by entry. Tags and fused reporters are not part of them. Lines headed by an entry give the natural chain unless they say otherwise; changes in a name come on top.
UniProt P10636: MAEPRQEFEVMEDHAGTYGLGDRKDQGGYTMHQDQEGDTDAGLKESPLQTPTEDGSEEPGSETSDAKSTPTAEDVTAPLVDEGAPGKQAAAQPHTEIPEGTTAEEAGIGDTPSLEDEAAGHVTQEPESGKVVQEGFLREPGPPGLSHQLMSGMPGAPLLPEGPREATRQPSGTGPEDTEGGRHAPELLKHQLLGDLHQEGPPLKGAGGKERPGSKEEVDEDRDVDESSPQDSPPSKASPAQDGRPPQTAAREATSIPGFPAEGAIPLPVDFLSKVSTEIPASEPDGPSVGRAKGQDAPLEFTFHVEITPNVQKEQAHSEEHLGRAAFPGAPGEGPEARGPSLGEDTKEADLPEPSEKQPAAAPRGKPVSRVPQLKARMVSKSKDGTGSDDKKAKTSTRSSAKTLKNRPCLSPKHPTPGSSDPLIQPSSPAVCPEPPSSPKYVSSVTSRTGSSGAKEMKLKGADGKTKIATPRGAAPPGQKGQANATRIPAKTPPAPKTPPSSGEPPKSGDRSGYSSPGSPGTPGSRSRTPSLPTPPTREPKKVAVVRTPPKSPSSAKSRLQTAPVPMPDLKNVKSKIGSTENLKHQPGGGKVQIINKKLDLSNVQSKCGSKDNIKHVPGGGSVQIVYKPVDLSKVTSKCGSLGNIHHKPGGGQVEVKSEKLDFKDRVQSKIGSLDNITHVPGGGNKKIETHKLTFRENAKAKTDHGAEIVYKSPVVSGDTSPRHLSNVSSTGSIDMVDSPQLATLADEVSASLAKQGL

No constants are given. Whether binding was seen depends on the method and setting. Some results given as binding are weak or reduced against the parent protein; the word gives no strength.

Experiment [1] deals with extracellular tau in the form of paired helical filaments (ePHF) (UniProt P10636). Put plainly: PHF-tau ELISA.
For experiment [2] the target is unchanged. Nature of the experiment: ePHF tau ELISA, control antibody.

B1: anti-tau antibody IPN002 (control antibody) (antibody, V domains shown)
VH: EVHLVESGGALVKPGGSLKLSCAASGFSFSKYGMSWVRQTPDKRLEWVATISSSGSRTYYPDSVKGQFTISRDNAKNTLYLQMSSLKSEDTAMYYCSISWDGAMDYWGQGTSVTVSS
VL: DVLMTQTPLSLPVSLGDQASISCKSSQSIVHSNGNTYLEWYLQKPGQSPKLLVYKVSNRFSGVPDRFSGSGSGTDFTLKISRVEAEDLGTYYCFQGSLVPWAFGGGTKLEIK
For the molecule B1, the binding entry in experiment [1] and in experiment [2] was “binds” each time.
